Results are given in words; binding and its absence hold for the method and conditions named. Some binding calls cover weakened binding; strength is not graded here.

The assay addresses dihydrolipoamide S-acetyltransferase (DLAT) (mouse (endogenous in colonic mucosa of C57BL/6 mice)) (UniProt Q8BMF4). As to the kind of experiment: native gel or EMSA; non-denaturing gel electrophoresis of colonic mucosa protein, immunoblot for DLAT; mice: control, DSS (2.5%, 7 days), DSS + TTM, DSS + PA; oligomerization reduced by TTM and by PA. (In EMSA bound probe runs differently from free probe, usually more slowly.)

B1: dihydrolipoamide S-acetyltransferase (DLAT) (protein, UniProt Q8BMF4 86-642)
chain: SLPPHQKVPLPSLSPTMQAGTIARWEKKEGEKISEGDLIAEVETDKATVGFESLEECYMAKILVPEGTRDVPVGSIICITVEKPQDIEAFKNYTLDLAAAAAPQAAPAAAPAPAAAPAAPSASAPGSSYPTHMQIVLPALSPTMTMGTVQRWEKKVGEKLSEGDLLAEIETDKATIGFEVQEEGYLAKILVPEGTRDVPLGAPLCIIVEKQEDIAAFADYRPTEVTSLKPQAAPPAPPPVAAVPPTPQPVAPTPSAAPAGPKGRVFVSPLAKKLAAEKGIDLTQVKGTGPEGRIIKKDIDSFVPSKAAPAAAAAMAPPGPRVAPAPAGVFTDIPISNIRRVIAQRLMQSKQTIPHYYLSVDVNMGEVLLVRKELNKMLEGKGKISVNDFIIKASALACLKVPEANSSWMDTVIRQNHVVDVSVAVSTPAGLITPIVFNAHIKGLETIASDVVSLASKAREGKLQPHEFQGGTFTISNLGMFGIKNFSAIINPPQACILAIGASEDKLIPADNEKGFDVASVMSVTLSCDHRVVDGAVGAQWLAEFKKYLEKPITMLL
modifications: lipoylated (sites not given)
As to B1, the binding result is recorded as “binds”.
